The text below walks through data of paper PMC7522278.

By UniProt entry, the sequences of proteins in these tests, tags left out. Where a name states a change or a piece, a line headed by the entry shows the natural chain unless it says otherwise.
UniProt P49366: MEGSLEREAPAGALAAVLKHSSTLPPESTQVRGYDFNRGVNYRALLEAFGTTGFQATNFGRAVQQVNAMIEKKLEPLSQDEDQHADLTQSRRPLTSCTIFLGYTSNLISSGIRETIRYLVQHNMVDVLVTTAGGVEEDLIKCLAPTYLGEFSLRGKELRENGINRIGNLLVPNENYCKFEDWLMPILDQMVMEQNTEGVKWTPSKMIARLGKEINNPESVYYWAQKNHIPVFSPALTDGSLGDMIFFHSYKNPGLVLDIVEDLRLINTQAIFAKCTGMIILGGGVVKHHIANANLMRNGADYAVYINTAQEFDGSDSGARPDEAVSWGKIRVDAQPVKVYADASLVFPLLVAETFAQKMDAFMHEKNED
UniProt P27361: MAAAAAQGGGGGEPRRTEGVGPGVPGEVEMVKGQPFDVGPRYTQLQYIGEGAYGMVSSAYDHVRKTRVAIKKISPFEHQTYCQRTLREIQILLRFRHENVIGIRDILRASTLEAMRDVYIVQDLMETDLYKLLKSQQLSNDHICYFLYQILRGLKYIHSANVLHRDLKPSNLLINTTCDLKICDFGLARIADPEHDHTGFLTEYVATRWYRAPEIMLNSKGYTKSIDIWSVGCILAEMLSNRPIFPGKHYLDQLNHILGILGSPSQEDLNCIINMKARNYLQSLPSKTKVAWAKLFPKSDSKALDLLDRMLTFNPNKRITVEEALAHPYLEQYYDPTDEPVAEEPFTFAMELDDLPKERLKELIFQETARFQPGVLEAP

The target in test [1] is SFB-tagged DHPS-∆EBM (human) (UniProt P49366). As to the kind of experiment: co-IP; SFB-tagged bait transiently expressed in HEK293T; lysate in NETN buffer, S protein beads 2 h at 4 °C, three washes, Western blot; also with mock- or PMA-treated cells (binding not affected).
Test [2] concerns the target DHPS-EBM-LRRAAA (triple mutation) (human) (UniProt P49366). Described as above.

Results are given in words; binding and its absence hold for the method and conditions named. In cells and extracts the contact can be indirect.

As to “endogenous ERK1 (from UniProt P27361 1-379) (enzyme)”, the binding entry in test [1] and in test [2] was “no binding” each time.
